From PubChem BioAssay AID2685 (National Center for Advancing Translational Sciences (NCATS), 2010)
The campaign covered roughly 320,000 compounds. About 2,100 (0.66%) were called active. The shares of active, inactive and inconclusive entries below differ from those in the screen. Calls come from the whole dose curve; as a rule, active = well fitted inhibition curve with a large enough effect in the signal ratio, with a control signal flat (not every such curve was filed as active); inconclusive = small, poorly fitted or top-dose-only effect, or effect the other way, or a change in a side signal; inactive = flat fitted curve, though single readings scatter; the % refers to the signal ratio. Potencies beside an inconclusive call are fits to weak or partial responses and may not hold up.

test: qHTS Assay for Lipid Storage Modulators in Drosophila S3 Cells; settings: BODIPY lipid droplet fluorescence, 18-24 h, cells fed with added oleic acid; lipid storage change, negative = inhibition: at 46.1 µM (top of the series) unless noted
In short: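 Drosophila S3 cells loaded with oleic acid (400 uM, as added) and compounds at several concentrations; lipid droplets imaged by 488-nm laser-scanning cytometry, 500–530 nm intensity and object ratio to cell channel. Percent activity normalized to 20 uM Triacsin C.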
% is set by controls: 0 for no effect and ±100 for the full control effect; potency is the fitted concentration of half-maximal effect.

Structure (SMILES)	lipid storage change, negative = inhibition	Potency	outcome
CCOc1ccc2nc(NCCNC(=O)c3cc(OC)c(OC)c(OC)c3)c(C#N)cc2c1	inconclusive: 1.34%		
CC(Sc1ccccc1)C(=O)NN=C1CCN(C)CC1 (stereo not given)	inconclusive: -14%		
C/C(=N\NC(=O)COc1ccc(C)cc1C(C)C)c1ccc(-n2ccnc2)cc1	inconclusive: -47.7%		
CCN(CC(=O)Nc1ccc2c(c1)OC(F)(F)O2)Cc1nc2ccccc2c(=O)[nH]1		inconclusive: 6.51 µM [activator, single point]	
O=C(Nc1ccccc1-c1ccccc1)c1ccc(Cl)c([N+](=O)[O-])c1		inconclusive: 0.0052 µM [falling, full curve, poor fit]	
COC(=O)c1ccc(Cn2cnc3c(cnn3-c3ccc(F)cc3)c2=O)o1	inconclusive: -6.92%		
COc1cccc(/C=C/c2ccc3cccc(O)c3n2)c1OC	inconclusive: -28%		
OCC1(Cc2ccccc2)CCN(Cc2ccc(-c3ccco3)cc2)CC1	inconclusive: 38.7%		
CCOC(=O)c1cnc(SC)nc1Oc1cccc(NS(=O)(=O)c2ccc(F)cc2)c1		inconclusive: 0.461 µM [activator, full curve]	
CC/C(=N\NC(=O)C1CCCC1)c1cccc(Br)c1	inconclusive: 97.1%		
Cc1ccc(S(=O)(=O)Nc2cccc(S(=O)(=O)N3CCCC3)c2)cc1C		inconclusive: 6.51 µM [activator, single point]	
COc1ccc(-c2nn(-c3ccccc3)cc2/C=C2/SC(=S)N(CCCC(=O)O)C2=O)c(C)c1	inconclusive: -87.5%		
O=C(Cc1ccc(Cl)cc1)N/N=C/c1cccc(O)c1		inconclusive: 0.0731 µM [activator, full curve, poor fit]	
COc1ccc(-c2csc3ncnc(N4CCN(C(=O)c5ccco5)CC4)c23)cc1	inconclusive		
Fc1ccc(-c2nnc(CSc3nnc(-c4ccc5c(c4)OCO5)o3)o2)cc1	inconclusive: 15.9%		
CC(NS(=O)(=O)c1ccccc1)C(=O)Nc1ccc2c(c1)OCCO2 (stereo not given)		inconclusive: 29.1 µM [falling, single point]	
COc1ccc(C)cc1NC(=O)CSc1nnc(-c2ccco2)n1N	inconclusive: -21.5%		
O=C(CN1C(=O)NC2(CCCC2)C1=O)OCCOc1cccc(Cl)c1	inconclusive		
CC(OC(=O)c1ncc(Cl)c(Cl)c1Cl)C(=O)NC1CCCCC1C (stereo not given)	inconclusive		
CCN1CCN(C(=O)c2ccc(Sc3ccccc3Cl)c([N+](=O)[O-])c2)CC1	inconclusive: 30.8%		
CSc1ccc(/C=C(\NC(=O)c2ccccc2)C(=O)NN)cc1	inconclusive: 14.2%		
CC(=O)Nc1ccc(S(=O)(=O)N2CCN(CCc3ccccc3)CC2)cc1	inconclusive: -29.4%		
CC(C)Cn1nc(-c2ccccc2)c2ccccc2c1=O	inconclusive: 48.3%		
Cc1ccccc1N1CCN(S(=O)(=O)CC23CCC(CC2=O)C3(C)C)CC1 (stereo not given)	inconclusive: 32.9%		
COc1ccccc1C(=O)N/N=C1/NC(=O)CC(C(=O)Nc2ccccc2)S1 (stereo not given)	inconclusive: 56.1%		
Cn1nnc(NC(=O)c2ccc(Br)o2)n1		inconclusive: 6.51 µM [falling, partial curve, poor fit]	
COC(=O)c1ccc(CN2C(=O)NC3(CCC(C)CC3)C2=O)o1 (stereo not given)	inconclusive: 44.2%		

Structure (SMILES)	lipid storage change, negative = inhibition	Potency	outcome
CC(Sc1nnc(-c2ccncc2)n1C)C(=O)NCC1CCCO1 (stereo not given)	inconclusive		
Cc1nc(NC(=O)c2cc3c(s2)CCCCC3)sc1C(=O)N(C)C	inconclusive: 18.8%		
Cc1ccc(S(=O)(=O)N/N=C/c2c(C)nn(-c3ccccc3)c2C)cc1		inconclusive: 6.51 µM [activator, single point]	
CCSC1=C(C#N)C(c2ccccc2C)CC(=O)N1 (stereo not given)	inconclusive: 17.5%		
C=CCOc1ccc2ccccc2c1CNn1cn[nH]c1=S			inactive [at 46.1 µM]
C/C(=N\NC(=O)CSc1nc(C)cc(C)n1)c1ccc([N+](=O)[O-])cc1		inconclusive: 2.06 µM [falling, partial curve]	
CC(C)(C)C1(C)OC(=O)C(=Cc2ccc(OCC(=O)Nc3ccccc3)cc2)C(=O)O1 (stereo not given)	inconclusive: -0.506%		
COc1cc2c(cc1OC)CN(C(=O)c1cccs1)CC2	inconclusive: -14.3%		
COC(=O)C1=C(C)NC(=S)NC1c1ccc(-c2cc(Cl)ccc2Cl)o1 (stereo not given)	inconclusive: 29.2%		
CC(=O)c1ccc(OC(=O)CCc2nc3ccccc3s2)cc1	inconclusive: -4.09%		
COc1cc(/C=N\NC(=O)C2C(=O)NCC2c2ccccc2)cc(OC)c1O (stereo not given)		inconclusive: 0.206 µM [activator, full curve, poor fit]	
Cn1nc(-c2ccccc2)c(CSc2ccccc2Cl)c1Cl		inconclusive: 3.66 µM [rising, single point]	
C=CCSC1=C(C#N)C(c2ccc(C(C)C)cc2)CC(=O)N1 (stereo not given)		inconclusive: 23.1 µM [cytotoxic, single point]	
CC(C)c1nnc(NC(=O)CSc2nnc(-c3ccco3)o2)s1		inconclusive: 0.82 µM [falling, full curve, poor fit]	
CCOc1ccc(C2=CSC3=NCCN23)cc1Cl		inconclusive: 6.51 µM [falling, partial curve, poor fit]	
CCOc1ccccc1NC(=O)c1c(NC(=O)CNCc2ccco2)sc2c1CCC2	inconclusive: 1.2%		
Cc1nc2cc(C(=O)OCC(=O)N(CC(C)C)C3CCS(=O)(=O)C3)ccc2n1-c1ccccc1 (stereo not given)	inconclusive: 12.9%		
COc1ccc(NS(=O)(=O)c2cc(C(=O)OC(C)C(=O)N3CCOCC3)ccc2Cl)cc1 (stereo not given)	inconclusive		
O=C(NCc1nnc(SCC(=O)N2CCCC2)o1)c1cccc(C(F)(F)F)c1	inconclusive: 13.4%		
CCCNC(=O)c1c(CSc2ccccc2)noc1C(=O)NCc1ccccc1	inconclusive: 12.4%		
O=C(Oc1c(Cl)cc(Cl)c2cccnc12)c1cccs1	inconclusive: -16.8%		
CC(=O)Nc1ccc(S(=O)(=O)Nc2ncccn2)cc1	inactive: 5.04%		
CCOC(=O)C1CCN(CCC(=O)Nc2ccc(Br)cc2)CC1	inconclusive: 53%		
Cc1ccc(NC(=O)CSc2nc(N)cc(N)n2)cc1S(=O)(=O)N1CCOCC1		inconclusive: 29.1 µM [cytotoxic, single point]	
O=C(O)c1cc(Cl)ccc1NC(=O)C1CCCO1 (stereo not given)	inconclusive: -13%		
CCCc1nnc(SCC(=O)Nc2nccs2)o1	inconclusive: 6.36%		
CCC(C)c1ccc(OCCN2CCCC2)cc1 (stereo not given)		active: 23.1 µM	

Structure (SMILES)	lipid storage change, negative = inhibition	Potency	outcome
CN(CCOc1ccccc1)C(=O)C1CCC(=O)N(CCN2CCOCC2)C1 (stereo not given)	inconclusive: 3.88%		
CCOc1ccc(S(=O)(=O)N2CCOCC2)cc1NC(=O)CSCc1c(C)noc1C		inconclusive: 3.26 µM [activator, single point]	
COCCNC(=O)C1CC(c2cccc([N+](=O)[O-])c2)=NO1 (stereo not given)	inconclusive: 17.7%		
COCCn1c(C)cc(/C=C2\NC(=S)N(C)C2=O)c1C	inconclusive: 143%		
Cc1ccc(C)c(OC(=O)CN2C(=O)c3ccccc3C2=O)c1	inconclusive: 55.6%		
Cc1ccc(S(=O)(=O)CC(=O)Nc2nnc(C(C)(C)C)s2)cc1	inconclusive: -30.7%		
Cc1cc(NS(=O)(=O)c2ccc(NC(=O)Cc3ccc(Cl)c(Cl)c3)cc2)no1	inconclusive		
CC1CCC(NC(=O)CSc2ccc(S(=O)(=O)N(C)C)cn2)CC1 (stereo not given)		inconclusive: 0.0058 µM [activator, full curve, poor fit]	
N#CCC(=O)N/N=C/c1cn(Cc2ccc(Cl)c(Cl)c2)c2ccccc12	inconclusive: -22.2%		
CC(C)(C)c1ccc(NC(=O)CCNC(=O)c2ccco2)cc1	inconclusive: -118%		
COc1ccc(OC)c(NC(=O)C(=O)NCc2ccncc2)c1	inconclusive: 22.5%		
O=C(O)[C@H]1CCCC[C@H]1C(=O)NCCc1ccccc1	inactive: 19.1%		
Cc1cc(C)c(S(=O)(=O)N2CC=C(c3ccccc3)CC2)c(C)c1	inconclusive: 18.1%		
O=C(CN1C(=O)C2CC=CCC2C1=O)NCc1ccc2c(c1)OCO2 (stereo not given)		inconclusive: 7.31 µM [falling, single point]	
O=C(NCc1ccncc1)c1cccc(Cn2cc(Br)cn2)c1	inconclusive: 0.749%		
Cc1cccc(C(=O)Nc2cccc(OC(=O)c3cccc(C)c3)c2)c1	inconclusive: 5.39%		
O=S1(=O)N=C(Oc2ccccc2)c2ccccc21		inconclusive: 1.16 µM [falling, full curve]	
Cc1ccc2c(C)c(C(=O)N3CCN(c4ncccn4)CC3)oc2c1C	inconclusive: 330%		
COc1ccc(NC(=O)CS(=O)CC(=O)NCC2OCCc3ccccc32)cc1 (stereo not given)	inconclusive: -3.51%		
COc1cccc(-c2cc(C(F)(F)F)n3ncc(C(=O)N4CCc5ccccc5C4)c3n2)c1	inconclusive: -1.16%		
O=C(Cn1c[n+](CC(=O)c2ccc([N+](=O)[O-])cc2)cn1)c1ccc([N+](=O)[O-])cc1	inconclusive: 34.4%		
COc1cccc(CN2CC(C(=O)N3CCOCC3)CCC2=O)c1 (stereo not given)			inactive [at 46.1 µM]
COC(=O)Cn1cccc1C(=O)c1ccccc1	inconclusive: -48.5% [at 0.0737 µM]		
CCCNc1nc(N2CCOCC2)nc(N2CCOCC2)n1		inconclusive: 0.0046 µM [falling, full curve, poor fit]	
CC1CCCCC1NC(=O)NC(=O)CCl (stereo not given)		inconclusive: 9.2 µM [activator, partial curve, poor fit]	
CCN(CC(=O)Nc1ccc(NC(C)=O)cc1)C(=O)C1CC(=O)N(CCc2ccc(OC)c(OC)c2)C1 (stereo not given)		inconclusive: 9.2 µM [activator, partial curve]	

An excerpt of the results above, for reference:
Structure (SMILES)	lipid storage change, negative = inhibition	Potency	outcome
COc1cccc(/C=C/c2ccc3cccc(O)c3n2)c1OC	inconclusive: -28%		
OCC1(Cc2ccccc2)CCN(Cc2ccc(-c3ccco3)cc2)CC1	inconclusive: 38.7%		
CCOC(=O)c1cnc(SC)nc1Oc1cccc(NS(=O)(=O)c2ccc(F)cc2)c1		inconclusive: 0.461 µM [activator, full curve]	
CC/C(=N\NC(=O)C1CCCC1)c1cccc(Br)c1	inconclusive: 97.1%		
Cc1ccc(S(=O)(=O)Nc2cccc(S(=O)(=O)N3CCCC3)c2)cc1C		inconclusive: 6.51 µM [activator, single point]	
COc1ccc(-c2nn(-c3ccccc3)cc2/C=C2/SC(=S)N(CCCC(=O)O)C2=O)c(C)c1	inconclusive: -87.5%		
O=C(Cc1ccc(Cl)cc1)N/N=C/c1cccc(O)c1		inconclusive: 0.0731 µM [activator, full curve, poor fit]	
COc1ccc(-c2csc3ncnc(N4CCN(C(=O)c5ccco5)CC4)c23)cc1	inconclusive		
Fc1ccc(-c2nnc(CSc3nnc(-c4ccc5c(c4)OCO5)o3)o2)cc1	inconclusive: 15.9%		
CC(NS(=O)(=O)c1ccccc1)C(=O)Nc1ccc2c(c1)OCCO2 (stereo not given)		inconclusive: 29.1 µM [falling, single point]	
COc1ccc(C)cc1NC(=O)CSc1nnc(-c2ccco2)n1N	inconclusive: -21.5%		
O=C(CN1C(=O)NC2(CCCC2)C1=O)OCCOc1cccc(Cl)c1	inconclusive		
CC(OC(=O)c1ncc(Cl)c(Cl)c1Cl)C(=O)NC1CCCCC1C (stereo not given)	inconclusive		
CCN1CCN(C(=O)c2ccc(Sc3ccccc3Cl)c([N+](=O)[O-])c2)CC1	inconclusive: 30.8%		
CSc1ccc(/C=C(\NC(=O)c2ccccc2)C(=O)NN)cc1	inconclusive: 14.2%		
CC(=O)Nc1ccc(S(=O)(=O)N2CCN(CCc3ccccc3)CC2)cc1	inconclusive: -29.4%		
CC(C)Cn1nc(-c2ccccc2)c2ccccc2c1=O	inconclusive: 48.3%		
Cc1ccccc1N1CCN(S(=O)(=O)CC23CCC(CC2=O)C3(C)C)CC1 (stereo not given)	inconclusive: 32.9%		
COc1ccccc1C(=O)N/N=C1/NC(=O)CC(C(=O)Nc2ccccc2)S1 (stereo not given)	inconclusive: 56.1%		
Cn1nnc(NC(=O)c2ccc(Br)o2)n1		inconclusive: 6.51 µM [falling, partial curve, poor fit]	
COC(=O)c1ccc(CN2C(=O)NC3(CCC(C)CC3)C2=O)o1 (stereo not given)	inconclusive: 44.2%		
CC(Sc1nnc(-c2ccncc2)n1C)C(=O)NCC1CCCO1 (stereo not given)	inconclusive		
Cc1nc(NC(=O)c2cc3c(s2)CCCCC3)sc1C(=O)N(C)C	inconclusive: 18.8%		
Cc1ccc(S(=O)(=O)N/N=C/c2c(C)nn(-c3ccccc3)c2C)cc1		inconclusive: 6.51 µM [activator, single point]	
